Experimental data from PubChem BioAssay AID248 (DTP/NCI, 2004).
The list is a part of this screen's results and no random one: it gathers tests that were run many times, whatever their T/C, doses with no T/C, and many T/C values between a quarter and a half above the control. Other doses and runs of a compound stand elsewhere. T/C gives the treated animals as a percentage of the vehicle group. Some doses have a count of surviving animals in place of a T/C: the source holds a T/C of zero for them, seemingly a mark for toxic or unscored doses. Some survivor counts are full or nearly so, which does not show that the dose was tolerated: survival well below the control is almost never listed, so the zero probably covers shortened survival too. Counts of survivors are from the toxicity check (mostly the fifth day) where no day follows; animals may have died later. Schedules are NCI's codes, taken here to give the interval after Q, in days (D) or hours (H), and the number of doses after X. Some entries hold several experiments; the values are given in rising order. Some schedules carry Z or #; the key to these is not given. For survival time, this PubChem deposit counts one and a half times the control or more as active, and values a quarter to a half above the control carry no call in these data; other NCI protocols may use other cut-offs. Some T/C values are followed by the survivors on the day toxicity was checked, most often the fifth; without a count, all were alive then.

System: L1210 leukemia ip in BDF1 mice, survival T/C
Test: NCI In Vivo Anticancer Drug Screen. Data for tumor model L1210 Leukemia (intraperitoneal) in B6D2F1 (BDF1) mice
Settings: higher T/C = longer survival
[1] = T/C endpoint: mean survival time, dose: 100.0 mg/kg/injection, schedule: Q01DX009 (ip), vehicle: saline with Tween-80
[2] = T/C endpoint: mean survival time, dose: 200.0 mg/kg/injection, schedule: Q01DX009 (ip), vehicle: saline with Tween-80
[3] = T/C endpoint: mean survival time, dose: 400.0 mg/kg/injection, schedule: Q01DX009 (ip), vehicle: saline with Tween-80
[4] = T/C endpoint: mean survival time, dose: 400.0 mg/kg/injection, schedule: Q01DX009 (ip), vehicle: saline
[5] = T/C endpoint: mean survival time, dose: 200.0 mg/kg/injection, schedule: Q01DX001 (ip), vehicle: saline
[6] = T/C endpoint: mean survival time, dose: 400.0 mg/kg/injection, schedule: Q01DX001 (ip), vehicle: saline
[7] = T/C endpoint: mean survival time, dose: 400.0 mg/kg/injection, schedule: Q04DX003 (ip), vehicle: saline with Tween-80
[8] = T/C endpoint: mean survival time, dose: 400.0 mg/kg/injection, schedule: Q01DX009 (ip), vehicle: Klucel (hydroxypropylcellulose) (HPC)
[9] = T/C endpoint: mean survival time, dose: 200.0 mg/kg/injection, schedule: Q04DX003 (ip), vehicle: saline with Tween-80
[10] = T/C endpoint: mean survival time, dose: 200.0 mg/kg/injection, schedule: Q01DX005 (ip), vehicle: saline
[11] = T/C endpoint: mean survival time, dose: 50.0 mg/kg/injection, schedule: Q01DX009 (ip), vehicle: saline with Tween-80
[12] = T/C endpoint: mean survival time, dose: 300.0 mg/kg/injection, schedule: Q01DX001 (ip), vehicle: saline
[13] = T/C endpoint: mean survival time, dose: 100.0 mg/kg/injection, schedule: Q01DX001 (ip), vehicle: saline
[14] = T/C endpoint: mean survival time, dose: 20.0 mg/kg/injection, schedule: Q01DX001 (ip), vehicle: saline

## Cc1nc(/N=N/N(C)C)c(C(N)=O)[nH]1
[1]
  T/C: 127 % of control [5 of 6 alive]
[2]
  T/C: 144 % of control
[3]
  T/C: 147 % of control

## O=[N+]([O-])c1ccc(Cl)c2nonc12
T/C endpoint: mean survival time, dose: 12.5 mg/kg/injection, schedule: Q04DX002 (ip), vehicle: Klucel (hydroxypropylcellulose) (HPC)
  survivor count: 2 of 4
T/C endpoint: mean survival time, dose: 25.0 mg/kg/injection, schedule: Q04DX002 (ip), vehicle: Klucel (hydroxypropylcellulose) (HPC)
  survivor count: 2 of 4
T/C endpoint: mean survival time, dose: 50.0 mg/kg/injection, schedule: Q04DX002 (ip), vehicle: Klucel (hydroxypropylcellulose) (HPC)
  survivor count: 0 of 3 and 1 of 4
T/C endpoint: mean survival time, dose: 100.0 mg/kg/injection, schedule: Q04DX002 (ip), vehicle: Klucel (hydroxypropylcellulose) (HPC)
  survivor count: 0 of 3
T/C endpoint: mean survival time, dose: 200.0 mg/kg/injection, schedule: Q04DX002 (ip), vehicle: Klucel (hydroxypropylcellulose) (HPC)
  survivor count: 1 of 3

## CN(C)CC(=O)N/N=C\c1ccc([N+](=O)[O-])s1
T/C endpoint: mean survival time, dose: 400.0 mg/kg/injection, schedule: Q04DX003 (ip), vehicle: saline
  survivor count: 1 of 6

## Cc1c(-c2ccccc2)cc(O)cc1-c1ccccc1
[4]
  survivor count: 2 of 6

## CCN1C(N)=NC(N)=NC1c1ccccc1 (stereo unspecified)
T/C endpoint: mean survival time, dose: 200.0 mg/kg/injection, schedule: Q01DX001 (ip), vehicle: Klucel (hydroxypropylcellulose) (HPC)
  survivor count: 0 of 3
T/C endpoint: mean survival time, dose: 400.0 mg/kg/injection, schedule: Q01DX001 (ip), vehicle: Klucel (hydroxypropylcellulose) (HPC)
  survivor count: 0 of 3

## OCC(O)C(O)C(O)C(O)C(c1ccc(Cl)cc1)c1ccc(Cl)cc1 (stereo unspecified)
[5]
  survivor count: 0 of 4
[6]
  survivor count: 0 of 4

## CCOC(=O)CC(=O)c1ccc(C(=O)CC(=O)O)cc1 (tested in a mixture with another compound)
[7]
  survivor count: 6 of 6

## C=C(C)COC(OCC(=C)C)C(C)C
[8]
  survivor count: 3 of 3

## N#CC1c2cc(OC(=O)c3ccccc3)ccc2C=CN1C(=O)c1ccccc1 (stereo unspecified)
T/C endpoint: mean survival time, dose: 400.0 mg/kg/injection, schedule: Q04DX003 (ip), vehicle: gum acacia
  survivor count: 6 of 6

## NC(=O)C(=O)N/N=C/c1ccc2c(c1)CCC2
T/C endpoint: mean survival time, dose: 100.0 mg/kg/injection, schedule: Q04DX003 (ip), vehicle: saline with Tween-80
  survivor count: 6 of 6
[9]
  survivor count: 6 of 6
[7]
  survivor count: 6 of 6

## C=C(Br)CNC(=O)C(C(F)(F)F)C(F)(F)F
T/C endpoint: mean survival time, dose: 100.0 mg/kg/injection, schedule: Q04DX003 (ip), vehicle: Klucel (hydroxypropylcellulose) (HPC)
  survivor count: 4 of 6
T/C endpoint: mean survival time, dose: 200.0 mg/kg/injection, schedule: Q04DX003 (ip), vehicle: Klucel (hydroxypropylcellulose) (HPC)
  survivor count: 0 of 6
T/C endpoint: mean survival time, dose: 400.0 mg/kg/injection, schedule: Q04DX003 (ip), vehicle: Klucel (hydroxypropylcellulose) (HPC)
  survivor count: 0 of 6

## O=C(CCc1ccc(C(=O)Nc2ccc(C3=NCCN3)cc2)cc1)Nc1ccc(C2=NCCN2)cc1
T/C endpoint: mean survival time, dose: 15.0 mg/kg/injection, schedule: Q01DX Z (ip), vehicle: carboxymethylcellulose (CMC)
  T/C: 143 % of control
T/C endpoint: mean survival time, dose: 240.0 mg/kg/injection, schedule: Q01DX Z (ip), vehicle: carboxymethylcellulose (CMC)
  survivor count: 0 of 6

## CCN(CC)c1ccc(N=Cc2ccccc2S(=O)(=O)O)cc1
T/C endpoint: mean survival time, dose: 100.0 mg/kg/injection, schedule: Q04DX003 (ip), vehicle: saline sonified
  survivor count: 4 of 6
T/C endpoint: mean survival time, dose: 200.0 mg/kg/injection, schedule: Q04DX003 (ip), vehicle: saline sonified
  survivor count: 1 of 6
T/C endpoint: mean survival time, dose: 400.0 mg/kg/injection, schedule: Q04DX003 (ip), vehicle: saline sonified
  survivor count: 0 of 6

## CC(C)=CCn1c(=O)c2c(ncn2C)n(C)c1=O
[7]
  survivor count: 1 of 3

## COc1cccc(C(C)(C)COS(=O)(=O)c2ccc(C)cc2)c1
[2]
  survivor count: 3 of 3

## O=C(O)C1OC(n2cc(F)c(=O)[nH]c2=O)CC1O (stereo unspecified)
T/C endpoint: mean survival time, dose: 100.0 mg/kg/injection, schedule: Q01DX005 (ip), vehicle: saline
  survivor count: 6 of 6
[10]
  survivor count: 5 of 6

## CNC(Cc1ccccc1)c1ccc(OC)cc1 (stereo unspecified)
[8]
  survivor count: 0 of 6

## CN(N=O)C(=O)Nc1ccccc1
T/C endpoint: mean survival time, dose: 300.0 mg/kg/injection, schedule: Q01DX001 (ip), vehicle: carboxymethylcellulose (CMC)
  T/C: 128 % of control
T/C endpoint: mean survival time, dose: 1200.0 mg/kg/injection, schedule: Q01DX001 (ip), vehicle: carboxymethylcellulose (CMC)
  survivor count: 0 of 10
T/C endpoint: mean survival time, dose: 2400.0 mg/kg/injection, schedule: Q01DX001 (ip), vehicle: carboxymethylcellulose (CMC)
  survivor count: 0 of 10

## O=C1C=CC(=O)N1c1ccc2c(c1)Cc1ccccc1-2
[9]
  survivor count: 0 of 6
[7]
  survivor count: 0 of 6

## FC(F)(F)c1nc2nc(Cl)c(Cl)nc2s1
T/C endpoint: mean survival time, dose: 50.0 mg/kg/injection, schedule: Q01DX009 (ip), vehicle: other
  survivor count: 2 of 6
T/C endpoint: mean survival time, dose: 100.0 mg/kg/injection, schedule: Q01DX009 (ip), vehicle: other
  survivor count: 1 of 6
T/C endpoint: mean survival time, dose: 200.0 mg/kg/injection, schedule: Q01DX009 (ip), vehicle: other
  survivor count: 0 of 6
T/C endpoint: mean survival time, dose: 400.0 mg/kg/injection, schedule: Q01DX009 (ip), vehicle: other
  survivor count: 0 of 6

## CCc1ccncc1
[6]
  survivor count: 1 of 4

## CCC[CH2][Sn]1([CH2]CCC)[CH]=CCC=[C]1C
[11]
  survivor count: 3 of 6
[1]
  survivor count: 0 of 6
[2]
  survivor count: 0 of 6
[3]
  survivor count: 0 of 6

## NCCCCS(=O)(=O)Nc1ccc(Nc2c3ccccc3nc3cc([N+](=O)[O-])ccc23)cc1
T/C endpoint: mean survival time, dose: 4.8 mg/kg/injection, schedule: Q01DX009 (ip), vehicle: saline
  T/C: 134 % of control
T/C endpoint: mean survival time, dose: 7.2 mg/kg/injection, schedule: Q01DX009 (ip), vehicle: saline
  T/C: 136 % of control
T/C endpoint: mean survival time, dose: 11.0 mg/kg/injection, schedule: Q01DX009 (ip), vehicle: saline
  T/C: 139 % of control
T/C endpoint: mean survival time, dose: 200.0 mg/kg/injection, schedule: Q01DX009 (ip), vehicle: saline
  survivor count: 2 of 6

## OC(C1CO1)(C(F)(F)F)C(F)(F)F (stereo unspecified)
[4]
  survivor count: 4 of 6

## CCC[n+]1ccc(C#N)cc1
[12]
  survivor count: 1 of 6

## C[C@]12CC[C@H](O)CC1=CC[C@@H]1[C@@H]2CC[C@](C)(C(=O)O)[C@H]1CC1Nc2ccccc2C1=O (stereo partly specified)
[13]
  survivor count: 6 of 6

## CC(C)OC(=S)SSC(=S)OC(C)C
T/C endpoint: mean survival time, dose: 400.0 mg/kg/injection, schedule: Q04DX003 (ip), vehicle: other
  survivor count: 3 of 6

## NC1=NC(c2ccc(Cl)cc2)N(c2ccc(S(N)(=O)=O)cc2)C(N)=N1 (stereo unspecified)
[12]
  survivor count: 0 of 6

## Cc1cc(NCCCCCCCNc2cc(C)nc3cc(N)ccc23)c2ccc(N)cc2n1
T/C endpoint: median survival time, dose: 3.12 mg/kg/injection, schedule: Q01DX009 (ip), vehicle: water
  T/C: 135 % of control

## O=C(NN1C(=O)CSC1=S)c1ccc([N+](=O)[O-])s1
[10]
  survivor count: 0 of 4
T/C endpoint: mean survival time, dose: 400.0 mg/kg/injection, schedule: Q01DX005 (ip), vehicle: saline
  survivor count: 0 of 4

## Clc1c(Cl)c(Cl)c([S][Pb]([c]2ccccc2)([c]2ccccc2)[c]2ccccc2)c(Cl)c1Cl
[11]
  survivor count: 3 of 3
[1]
  survivor count: 0 of 3
T/C endpoint: mean survival time, dose: 200.0 mg/kg/injection, schedule: Q04DX002 (ip), vehicle: saline with Tween-80
  survivor count: 3 of 3
T/C endpoint: mean survival time, dose: 400.0 mg/kg/injection, schedule: Q04DX002 (ip), vehicle: saline with Tween-80
  survivor count: 2 of 3

## CCCCN(CCCC)C(=N)c1c(C)cc(C)cc1C
[14]
  survivor count: 2 of 6
T/C endpoint: mean survival time, dose: 50.0 mg/kg/injection, schedule: Q01DX001 (ip), vehicle: saline
  survivor count: 0 of 4
[13]
  survivor count: 0 of 4
[5]
  survivor count: 0 of 4
[6]
  survivor count: 0 of 4

## CCOP(=O)(OCC)Oc1ccc(SC)cc1
[14]
  survivor count: 0 of 6
T/C endpoint: mean survival time, dose: 40.0 mg/kg/injection, schedule: Q01DX001 (ip), vehicle: saline
  survivor count: 0 of 6
T/C endpoint: mean survival time, dose: 80.0 mg/kg/injection, schedule: Q01DX001 (ip), vehicle: saline
  survivor count: 0 of 6
